Experimental data taken from patent US6960440.
Results are given in words; binding and its absence hold for the method and conditions named. For some assays here: In cells and extracts the contact can be indirect. Some results given as binding are weak or reduced against the parent protein; the word gives no strength. For some assays here: Where a sequence is shown, tags or fusion partners need not be part of it. One block for each substance: values may come before it.

The chains behind the UniProt entries cited, without tags or fusion partners. Where a name states a change or a piece, a line headed by the entry shows the natural chain unless it says otherwise.
UniProt P0A7C2: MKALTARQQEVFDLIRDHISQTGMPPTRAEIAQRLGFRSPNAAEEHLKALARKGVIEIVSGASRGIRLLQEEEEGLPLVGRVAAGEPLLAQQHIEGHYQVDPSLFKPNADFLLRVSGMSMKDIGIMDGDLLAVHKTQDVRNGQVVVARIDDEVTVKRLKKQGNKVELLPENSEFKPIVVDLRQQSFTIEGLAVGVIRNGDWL
UniProt Q9WTZ9: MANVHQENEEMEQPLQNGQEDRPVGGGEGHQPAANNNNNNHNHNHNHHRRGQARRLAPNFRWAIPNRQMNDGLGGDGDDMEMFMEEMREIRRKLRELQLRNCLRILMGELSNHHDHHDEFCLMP

Assays:
[1] = target: T1, GST-rat p75NTRICD fusion protein (a.a. 338-396), E. coli-expressed (rat) (UniProt P07174); assay: in vitro GST pull-down (FIG. 2A)
T1 sequence (looked up): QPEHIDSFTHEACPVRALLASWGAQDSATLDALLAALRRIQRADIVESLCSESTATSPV

[2] = target: T1, GST-rat p75NTRICD fusion protein (a.a. 338-396), E. coli-expressed (rat); assay: in vitro GST pull-down, 35S-labelled in vitro-translated NADE
[3] = target: T2, LexA-p75NTR (338-396) protein (rat) (UniProt P0A7C2+P07174); assay: yeast two-hybrid screen
[4] = target: T2, LexA-p75NTR (338-396) protein (rat); assay: yeast two-hybrid, HIS3 and lacZ reporters, mating test
[5] = target: full length rat p75NTR expressed in 293T cells (pcDNA3/rat p75NTR) (rat) (UniProt P07174); assay: co-immunoprecipitation from co-transfected 293T cells (anti-Myc IP, anti-p75NTR blot)
[6] = target: full length rat p75NTR expressed in 293T cells (pcDNA3/rat p75NTR) (rat) (UniProt P07174); assay: co-immunoprecipitation from co-transfected 293T cells treated with NGF
[7] = target: full length rat p75NTR expressed in 293T cells (pcDNA3/rat p75NTR) (rat) (UniProt P07174); assay: co-immunoprecipitation from co-transfected 293T cells (FIG. 2B)
[8] = target: full length rat p75NTR expressed in 293T cells (pcDNA3/rat p75NTR) (rat) (UniProt P07174); assay: co-immunoprecipitation from co-transfected 293T cells treated with various concentrations of NGF

Substance: in vitro-translated mouse NADE protein (p75NTR-associated cell death executor) (from UniProt Q9WTZ9 1-124)
binding [1]: binds | binding [2]: binds

binding [3]: binds | binding [4]: binds
Substance: mouse cDNA clone No. 59 (NADE) from the mouse embryo pVP16 cDNA library (from UniProt Q9WTZ9 1-124)

binding [5]: binds | binding [6]: binds | binding [7]: binds | binding [8]: binds
Substance: Myc-tagged mouse NADE expressed in 293T cells (pcDNA3.1(-)Myc-HisA/NADE) (from UniProt Q9WTZ9 1-124)
